# Source: PubChem BioAssay AID624291 (National Center for Advancing Translational Sciences (NCATS), 2012)
# In all, about 350,000 compounds went through this assay and about 220 (0.063%) were called active. The shares of active, inactive and inconclusive entries below differ from those in the screen. Calls follow the shape of the dose curve; as a rule, active = well fitted activation curve with a large enough effect; inconclusive = small, poorly fitted or top-dose-only effect; inactive = no such curve, though single readings can be large or run the other way. Potencies beside an inconclusive call are fits to weak or partial responses and may not hold up.
# Assay: qHTS for Activators of Integrin-Mediated Alleviation for Muscular Dystrophy; also: nearly all actives have a fitted effect of over 60% in size;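 as to activation: 100% = response of the positive control SU9516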
# Settings: alpha7betagal myoblasts, beta-gal FDG fluorescence, 48 h; activation: at 38.3 µM (top of the series)
# Outline: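 alpha7betagal+/- myoblasts (passage 13, 250/well) treated 48 h at 37C with compounds at 1:260 dilution of DMSO stock. Lysed, then beta-galactosidase activity read as FDG fluorescence (ex 480/em 540) after 30 min, with pre-read for autofluorescence.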
# Potency is read from the fitted curve at half-maximal effect.
SMILES,Potency,activation
CN(C)C(=O)c1c2c(nc3ccccc13)CCCC2,"inconclusive: 0.891 µM [activator, full curve, poor fit]",
Cc1ccc(S(=O)(=O)NC(=O)C2CCCCC2)cc1,"inconclusive: 10 µM [activator, single point]",
Cc1ccc2c(c1)N(CC(=O)NCCc1ccccc1)C(=O)c1cccnc1O2,"inconclusive: 5.01 µM [activator, single point]",
CCC(=O)N(Cc1cc(=O)[nH]c2ccccc12)c1ccccc1OC,"inconclusive: 5.01 µM [activator, single point]",
CC(SCc1ccccc1)C(=O)Nc1ccc(F)cc1 (stereo not drawn),"inconclusive: 3.16 µM [activator, single point]",
COc1ccc(OCCSc2nc(N)cc(=O)[nH]2)cc1,"inconclusive: 28.2 µM [activator, single point]",
S=c1nc(NCCc2ccccc2Cl)c2ccccc2[nH]1,,inactive: -1.38%
Cc1ccc(NS(=O)(=O)c2c(C(=O)N3CCOCC3)c(C)n(C)c2C)cc1C,"inconclusive: 5.01 µM [activator, single point]",
COc1cc(NC(=O)c2ccc3c(SCC(=O)O)c4c(nc3c2)CCC4)cc(OC)c1OC,"inconclusive: 28.2 µM [activator, single point]",
COc1ccc(C(=O)Nc2ccccc2C(=O)N/N=C/c2ccccc2OC)cc1,"inconclusive: 12.6 µM [activator, single point]",
CC1=NN(C(=O)CSCc2ccccc2)C(O)(c2ccc(Cl)cc2)C1 (stereo not drawn),,inactive: 31.9%
CCc1cccc(N(C(=O)c2csnn2)C(C(=O)NC(C)(C)C)c2ccncc2)c1 (stereo not drawn),"inconclusive: 1 µM [activator, full curve, poor fit]",
COc1ccc(/C=C/C(=O)Nc2ccccc2C(F)(F)F)cc1OC,"inconclusive: 2.82 µM [activator, single point]",
COc1ccc(C(=O)Cn2nnc(-c3ccccc3NC(=O)c3ccco3)n2)cc1,"inconclusive: 11.2 µM [activator, partial curve]",
Cc1ccc(S(=O)(=O)N2CCCN(C)c3nc4ccccc4nc32)cc1,,inactive: 22.6%
CCSc1nnc2ccc(-c3ccc(OC)c(OC)c3)nn12,,inactive: -15.5%
Cc1ccccc1C(=O)Nc1ccccc1NC(=O)c1ccccc1C,"inconclusive: 0.891 µM [activator, full curve, poor fit]",
O=C(NC1CSCC1OC(=O)c1ccccc1)c1ccccc1 (stereo not drawn),"inconclusive: 28.2 µM [activator, single point]",
COc1ccc(NC(=S)NC(=O)C2CCCCC2)cc1,"inconclusive: 5.01 µM [activator, single point]",
CCOc1cc(/C=C2\C(=O)ON=C2c2ccccc2)ccc1OC,"inconclusive: 11.2 µM [activator, partial curve]",
CN(C)C(=S)Nc1ccc(Br)cc1Cl,"inconclusive: 3.98 µM [activator, single point]",
Cc1ccccc1NC(=O)C(C)OC(=O)C1CC(=O)N(Cc2ccco2)C1 (stereo not drawn),"inconclusive: 3.98 µM [activator, single point]",
O=C1CCCCC1Nc1ccc(Br)cc1 (stereo not drawn),,inactive: 6%

# Three entries out of the list, sorted by length of the SMILES, smallest number first:
SMILES,Potency,activation
COc1ccc(NC(=S)NC(=O)C2CCCCC2)cc1,"inconclusive: 5.01 µM [activator, single point]",
CCC(=O)N(Cc1cc(=O)[nH]c2ccccc12)c1ccccc1OC,"inconclusive: 5.01 µM [activator, single point]",
Cc1ccc2c(c1)N(CC(=O)NCCc1ccccc1)C(=O)c1cccnc1O2,"inconclusive: 5.01 µM [activator, single point]",

# More entries follow:

SMILES,Potency,activation
COc1cc([N+](=O)[O-])cc(/C=N/NC(=O)c2cccnc2)c1O,"inconclusive: 11.2 µM [activator, partial curve, poor fit]",
COc1ccc(S(=O)(=O)N2CCOCC2)cc1NC(=O)Cc1ccsc1,,inactive: 41%
Cc1nc(=O)c(-c2ccccc2)c(C)n1-c1ccc(O)cc1,"inconclusive: 11.2 µM [activator, single point]",
Nc1ccc2c(c1)[nH]c(=O)c1cc(N)ccc12,,inactive: 22.1%
CC(=O)c1c(C)[nH]c(C(=O)Nc2ccc(Cl)cc2)c1C,"inconclusive: 2.51 µM [activator, full curve, poor fit]",
Cc1cccc(C)c1NC(=O)COC(=O)c1ccccc1[N+](=O)[O-],"inconclusive: 3.16 µM [activator, single point]",
COCCN(C(=O)Nc1ccccc1OC)c1nc2ccccc2s1,"inconclusive: 5.62 µM [activator, partial curve, poor fit]",
Cc1ccc(S(=O)(=O)N2CCN(C(=O)CSc3ccc(F)cc3)CC2)cc1,,inactive: -13%
O=C(NCCN1CCOCC1)/C(=C/c1ccco1)NC(=O)c1ccccc1,"inconclusive: 1.58 µM [activator, partial curve, poor fit]",
COc1ccc(Cl)cc1NC(=O)c1cnccn1,"inconclusive: 1 µM [activator, partial curve, poor fit]",
CN(c1ccccc1)S(=O)(=O)c1cccc(NC(=O)c2cc(=O)c3ccccc3o2)c1,,inactive: -4.41%
c1ccc(-c2cc3ccccc3nc2N2CCCC2)cc1,,inactive: -20.2%
CCOc1ccccc1OCCCCN1CCCC1,,inactive: -8.35%
CCN(CC)c1ccc(C(=O)OCC(=O)Nc2cc(C)on2)cc1,"inconclusive: 2 µM [activator, single point]",
CC(OC(=O)c1ccccc1CCc1ccccc1)C(N)=O (stereo not drawn),"inconclusive: 0.631 µM [activator, full curve, poor fit]",
CN(C)c1nc(Nc2ccc(Cl)c(Cl)c2)nc(N(C)C)n1,"inconclusive: 0.501 µM [activator, full curve, poor fit]",
CCC(=O)Nc1nnc(SCC(=O)Nc2ccc3c(c2)OCCO3)s1,"inconclusive: 10 µM [activator, single point]",
CCOc1c(Cl)cc(Cl)cc1CNCCNCCO,"inconclusive: 1.78 µM [activator, partial curve, poor fit]",
COc1ccccc1CC(=O)NCCc1ccccc1,"inconclusive: 2 µM [activator, full curve, poor fit]",
CC(=O)CCc1oc2ccc(NC(C)=O)cc2c1-c1ccc(C)o1,,inactive: 0.0169%
S=C(NCCc1ccc(Cl)cc1)Nc1ccc(Cl)cc1Cl,,inactive: -19.3%
COc1ccccc1N1CCN(S(=O)(=O)CCNC(=O)c2ccc(Br)o2)CC1,"inconclusive: 0.501 µM [activator, full curve, poor fit]",
Cc1cc(-n2c(SCC(=O)NCCC3=CCCCC3)nc3n[nH]c(C)c3c2=N)ccc1Cl,"inconclusive: 0.447 µM [activator, partial curve, poor fit]",

SMILES,Potency,activation
CCOC(=O)c1sc(=S)n(-c2ccc(C)cc2)c1SC,"inconclusive: 28.2 µM [activator, single point]",
O=C(Nc1cccc2ccccc12)c1ccc([N+](=O)[O-])cc1,,inactive: -13.2%
O=C(O)/C=C/c1ccc(Oc2ncccn2)cc1,"inconclusive: 2.82 µM [activator, full curve, poor fit]",
COc1ccc(COC(=O)N/N=C/c2cccs2)cc1,"inconclusive: 1.41 µM [activator, partial curve, poor fit]",
O=C(Cc1ccccc1)NN=C1CCCC1,"inconclusive: 11.2 µM [activator, partial curve, poor fit]",
NC(=O)c1cc2ccc(O)cc2oc1=NCc1ccccc1,"inconclusive: 11.2 µM [activator, partial curve, poor fit]",
COC(=O)c1ccc(Cn2cc(C(F)(F)F)cc([N+](=O)[O-])c2=O)cc1,"inconclusive: 5.01 µM [activator, single point]",
Cc1ccc2cc(C#N)c(N3CCCN(S(=O)(=O)c4ccccc4)CC3)nc2c1C,"inconclusive: 1.41 µM [activator, partial curve, poor fit]",
Cc1[nH]n(-c2ccccc2)c(=O)c1N=Nc1cccc([N+](=O)[O-])c1,"inconclusive: 10 µM [activator, single point]",
Cc1cc(NC(=O)CCN2C(=O)c3ccccc3C2=O)no1,"inconclusive: 3.16 µM [activator, single point]",
O=C(Nc1nc2cc3c(cc2s1)OCO3)C1CCCCC1,"inconclusive: 3.98 µM [activator, single point]",
O=C(NCc1ccco1)/C(=C\c1cccs1)NC(=O)c1ccco1,"inconclusive: 22.4 µM [activator, single point]",
CCOCCCN1C(=O)CN(C2CCCCCC2)C(=O)C1c1ccc(OC)cc1 (stereo not drawn),"inconclusive: 12.6 µM [activator, partial curve]",
OCC1(CCc2ccccc2)CCCN(CCCC(F)(F)F)C1 (stereo not drawn),"inconclusive: 3.16 µM [activator, single point]",
Cc1cc(NC(=O)CCC(=O)N(Cc2cccnc2)C(C(=O)NC(C)(C)C)c2ccccc2Cl)no1 (stereo not drawn),active: 3.98 µM,
CCCC(=O)Nc1ccc(Nc2ccccc2)cc1,"inconclusive: 3.98 µM [activator, single point]",
COc1ccc(C[C@H]2CN3C(=NC[C@@H]3Cc3ccc(O)cc3)N2CCNC(=O)c2ccc(C)c(Br)c2)cc1,,inactive: -39.9%
NC(=O)C1CCN(C2=C(NS(=O)(=O)c3ccc(Br)cc3)C(=O)c3ccccc3C2=O)CC1,,inactive: 0%
Clc1cccc(-c2nc(NCC3CCCO3)c3ccccc3n2)c1 (stereo not drawn),"inconclusive: 3.98 µM [activator, partial curve, poor fit]",
COc1ccc(N(C(=O)CNC(=O)c2ccco2)C(C(=O)NCC2CCCO2)c2ccc(OC)c(OC)c2)cc1 (stereo not drawn),"inconclusive: 3.16 µM [activator, full curve, poor fit]",
Cc1ccccc1C(=O)NNC(=O)c1cccc([N+](=O)[O-])c1,"inconclusive: 28.2 µM [activator, single point]",
Cc1ccc(OCc2nnc(SCC(=O)c3ccccc3)n2-c2ccccc2)cc1,"inconclusive: 14.1 µM [activator, single point]",
